# Measured values reported in PubChem BioAssay AID504467 (National Center for Advancing Translational Sciences (NCATS), 2011).
# The whole screen tested about 330,000 compounds, of which about 7,700 (2.3%) were called active. The shares of active, inactive and inconclusive entries below differ from those in the screen. The call rests on the fitted dose curve; in most records, active means well fitted inhibition curve with a large enough effect; inconclusive means small, poorly fitted or top-dose-only effect, or effect the other way; inactive means flat fitted curve, though single readings scatter. Potencies of inconclusive entries are doubtful fits and often do not repeat.
# Assay: qHTS screen for small molecules that inhibit ELG1-dependent DNA repair in human embryonic kidney (HEK293T) cells expressing luciferase-tagged ELG1; further: nearly all actives have a fitted effect of over 55% in size
# Settings: HEK293T ELG1-luciferase reporter, luminescence, 16 h, DNA damage induced by 5-fluorouridine; activity change, negative = inhibition: at 46.1 µM (top of the series)
# Method in brief: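 Overnight (16 hr) co-exposure of 2,000 cells/well to 5-fluorouridine and compound at 37 °C preceded detection. Luciferase was quantified via ONE-Glo luminescence; loss of signal denotes inhibition.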
# On the % scale 0 is the no-effect control and ±100 the full control effect; potency means the concentration at half of the fitted maximal effect.
SMILES,"activity change, negative = inhibition",Potency
CC(=O)n1cc(CO)c2ccccc21,inactive: 2.59%,
CC(=O)NCC1CCCN(Cc2cn(-c3ccccc3F)nc2-c2cc(C)sc2C)C1 (stereo not given),inactive: -9.29%,
O=C(Nc1nnc(SCc2ccccc2)s1)c1cccs1,,"inconclusive: 20.6 µM [activator, partial curve]"
C/C(=N/OC(=O)C1CC1)c1cc(-c2ccc(Cl)cc2)no1,,"inconclusive: 16.4 µM [activator, partial curve]"
CC(=O)c1cccc(NC(=O)c2cccc(N3C(=O)c4ccccc4C3=O)c2)c1,inactive: 6.89%,
COc1cc(OC)cc(-c2nc3nc(C)c(CCC(=O)NCc4ccco4)c(C)n3n2)c1,,"inconclusive: 9.2 µM [inhibitor, partial curve]"
CCN1CCc2c(sc(N)c2C#N)C1,inactive: -3.48%,
Cc1ccc(NS(=O)(=O)c2cc([N+](=O)[O-])ccc2NNC(=S)Nc2cc(C)ccc2C)c(C)c1,,"inconclusive: 1.84 µM [inhibitor, partial curve, poor fit]"
CC1CC(C)CN(CCCNC(=O)c2ccc3c(c2)NC(=O)CS3)C1 (stereo not given),,"inconclusive: 18.3 µM [activator, single point]"
CC1CCC(NC(=O)c2cccc(S(=O)(=O)N3CCN(c4ccc(F)cc4)CC3)c2)CC1 (stereo not given),,"inconclusive: 25.9 µM [activator, single point]"
CN(C)S(=O)(=O)c1ccc(N2CCCC2)c(C(=O)Nc2ccc(Br)cc2F)c1,inactive: -7.6%,
CCOC(=O)C1(CCOc2ccccc2)CCN(Cc2cccc3c2OCO3)CC1,,"inconclusive: 18.3 µM [inhibitor, single point]"
COc1ccccc1NC1=Nc2cccc3cccc1c23,inactive: -6.84%,
Cc1cccc(NC(=O)Nc2ccc(Cl)c(Cl)c2)n1,,"inconclusive: 0.794 µM [activator, full curve, poor fit]"
CC(C)c1cc(C(=O)N/N=C/C=C/c2ccccc2)n[nH]1,inactive: -4.05%,
CC(C)OCCCNC(=O)c1cc2c(=O)n(C)c3ccccc3c2n1C,,"inconclusive: 18.4 µM [inhibitor, single point]"
CCCn1nc2cc(C(=O)NCC34CC5CC(CC(C5)C3)C4)ccc2c1OCC,,"inconclusive: 18.4 µM [inhibitor, partial curve, poor fit]"
Cc1cccc2cc(CN(Cc3nnnn3C3CCCCC3)C3CCCC3)c3nnnn3c12,,"inconclusive: 13 µM [inhibitor, partial curve]"
Cn1ncc2c1ncn1nc(CCc3ccccc3)nc21,,"inconclusive: 8.2 µM [activator, partial curve]"
NC(=O)CN1C(=O)C(O)(CC(=O)/C=C\c2ccc3c(c2)OCO3)c2ccccc21 (stereo not given),,"inconclusive: 29.1 µM [inhibitor, partial curve, poor fit]"
COc1ccc(CCNC2=C(Cl)C(=O)N(CCc3ccccc3)C2=O)cc1OC,,"inconclusive: 29.1 µM [inhibitor, single point]"
O=C(OCc1c(-c2ccccc2)ncc2ccccc12)c1ccc(F)cc1,,"inconclusive: 29.1 µM [inhibitor, single point]"
CC(C)n1cnc2cc(NC(=O)c3ccco3)ccc21,,"inconclusive: 8.2 µM [activator, partial curve]"

# Reformatted with tabs: part of the list above.
SMILES	activity change, negative = inhibition	Potency
CC(=O)n1cc(CO)c2ccccc21	inactive: 2.59%	
CC(=O)NCC1CCCN(Cc2cn(-c3ccccc3F)nc2-c2cc(C)sc2C)C1 (stereo not given)	inactive: -9.29%	
CC(C)OCCCNC(=O)c1cc2c(=O)n(C)c3ccccc3c2n1C		inconclusive: 18.4 µM [inhibitor, single point]

# Next records.

SMILES,"activity change, negative = inhibition",Potency
CCN(Cc1ccccc1)S(=O)(=O)c1ccc(S(=O)(=O)N(Cc2ccccn2)Cc2ccco2)cc1,inactive: 0%,
CC(C)Cc1nc(SCc2cccnc2)c2c(=O)n(C)c(=O)n(C)c2n1,,"inconclusive: 29.1 µM [inhibitor, single point]"
Cc1ccc(/C(N)=N/OC(=O)c2ccc3c(c2)OCO3)cc1,,"inconclusive: 5.17 µM [activator, partial curve]"
CC(=O)N1c2ccccc2Sc2ccccc21,inactive: 2.87%,
CC1Cc2ccccc2N1Cc1nc2cc(Cl)ccc2c(=O)[nH]1 (stereo not given),,"inconclusive: 23.1 µM [inhibitor, partial curve, poor fit]"
CCOC(=O)c1ccc(NC(=O)/C=C/c2cccs2)cc1,,"inconclusive: 25.9 µM [activator, single point]"
Cc1cccc(OCCC(=O)NCC(=O)Nc2cccc(C)c2C)c1,,"inconclusive: 18.4 µM [activator, partial curve, poor fit]"
Cc1cccc(N(C(=O)c2snc(C(N)=O)c2N)C(C(=O)NC2CCCC2)c2ccncc2)c1 (stereo not given),inactive: -18.2%,
COc1cc(CCCN2CCNC[C@@H]2Cc2ccccc2)cc(OC)c1OC,inactive: 29.5%,
CCC1Sc2ccc(S(=O)(=O)Nc3ccc(OC)c(OC)c3)cc2NC1=O (stereo not given),,"inconclusive: 2.06 µM [inhibitor, partial curve, poor fit]"
COc1cc(-c2nc3ccc(C)cn3c2Nc2ccc3c(c2)OCCO3)ccc1O,inactive: 8.05%,
COCCOC(=O)C1=C(C)NC(=O)NC1c1c(Cl)nc2c(C)cccn2c1=O (stereo not given),,"inconclusive: 10.3 µM [activator, partial curve]"
Cc1csc(NC(=O)Cc2ccc(Br)cc2)n1,,"inconclusive: 23.1 µM [activator, partial curve, poor fit]"
Cc1cccc(C(=O)NCc2ccc(S(N)(=O)=O)cc2)c1[N+](=O)[O-],,"inconclusive: 16.4 µM [activator, single point]"
CCc1nnc(NC(=O)C(CC)CC)s1,inactive: 4.27%,
Cc1ccc(C(=O)Nc2ccncc2)cc1S(=O)(=O)N1CCOCC1,,"inconclusive: 20.6 µM [inhibitor, single point]"
N#Cc1c(N2CCCC2)nsc1-c1ccccc1,,"inconclusive: 20.6 µM [activator, partial curve]"
COC(=O)c1ccc(NC(=O)c2cccc(OC)c2)cc1,,"inconclusive: 10.3 µM [activator, partial curve]"
Cc1ccc(NC(=O)c2ccc(CSc3ccccn3)cc2)c(O)c1,inactive: -7.08%,
CC(=O)NC(Cc1ccccc1)c1ccc2c(c1)OCCCO2 (stereo not given),,"inconclusive: 29.1 µM [activator, single point]"
CC(=O)N(CCN1CCOCC1)Cc1cc2cc3c(cc2nc1Cl)OCO3,,"inconclusive: 23.1 µM [inhibitor, single point]"
O=C(COC(=O)c1c2c(nc3ccccc13)CCN(Cc1ccccc1)C2)Nc1c(F)cccc1F,,active: 5.8 µM
